Data as given in paper PMC12109424.
No constants are given. Whether binding was seen depends on the method and setting. Binding can be weak; no strength is given. For part of these data: In cells and extracts the contact can be indirect. Blank lines part the entries; values can stand above or below the binder they belong to.

Experiments:
[1] = target: Pba3-Pba4-FLAG-6His (chaperone from yeast cells) (S. cerevisiae (endogenous in yeast cells) | S. cerevisiae); test: co-IP; tandem affinity purification of Pba4-FLAG-6His from yeast extracts (WT, ump1Δ) on Ni-NTA and then anti-FLAG resin, 50 mM Tris-HCl pH 7.4, 150 mM NaCl, 4 °C, elution with FLAG peptide; SDS-PAGE and immunoblots for FLAG, α5, α6, α7
[2] = target: Pba3-Pba4-HA (recombinant heterodimeric chaperone) (S. cerevisiae); test: native gel or EMSA; 20 μg of proteins purified from E. coli mixed (added in sequence to Pba3-Pba4) in 100 μL 26S buffer with SENP1, 90 min, 4 °C, no washing; native PAGE and immunoblot with anti-α5 and anti-FLAG; both purified
[3] = target: Pba3-Pba4-HA (recombinant heterodimeric chaperone) (S. cerevisiae); test: co-IP; Pba3-Pba4-HA held on HA-resin; 50 μg purified test proteins added with SENP1 in 1 mL binding buffer (50 mM Tris-HCl pH 7.4, 150 mM NaCl, 5 mM EDTA, 1% Triton X-100), 1 h, 4 °C; three washes; elution with HA peptide; SDS-PAGE and Western blot; both purified

- binding [1]: binds
B1: proteasome subunit α5 (Pup2), from yeast cells (protein, UniProt P32379 1-260)
chain: MFLTRSEYDRGVSTFSPEGRLFQVEYSLEAIKLGSTAIGIATKEGVVLGVEKRATSPLLESDSIEKIVEIDRHIGCAMSGLTADARSMIEHARTAAVTHNLYYDEDINVESLTQSVCDLALRFGEGASGEERLMSRPFGVALLIAGHDADDGYQLFHAEPSGTFYRYNAKAIGSGSEGAQAELLNEWHSSLTLKEAELLVLKILKQVMEEKLDENNAQLSCITKQDGFKIYDNEKTAELIKELKEKEAAESPEEADVEMS

- binding [2]: binds
- binding [3]: binds
B2: proteasome subunit α5 (Pup2), recombinant (protein, UniProt P32379 1-260)
chain: B1 chain
